Data published in PubChem BioAssay AID330 (DTP/NCI, 2004).
The list does not hold the whole screen: it is rich in T/C values a quarter to a half above the control, in often repeated tests (any T/C) and in doses without a T/C. Further doses and runs are listed elsewhere. T/C is the treated group as % of the vehicle group. Some doses have a count of surviving animals in place of a T/C: the source holds a T/C of zero for them, seemingly a mark for toxic or unscored doses. Some doses without a T/C left all or most animals alive at the check, yet need not have been tolerated: the source hardly ever lists a survival T/C far under the control, and the zero likely stands for such cases as well. Survivors were counted at the toxicity check, usually on the fifth day, unless a day is given; later deaths do not show. Schedules are NCI's codes, taken here to give the interval after Q, in days (D) or hours (H), and the number of doses after X. Some doses were run more than once; the results are listed from low to high. For survival time, the PubChem record calls one and a half times the control and up active, and a quarter to a half above the control has no call in these data; cut-offs in other NCI protocols can differ. Signs of the kind (2×) say how often a value occurs here. Some T/C values are followed by the survivors on the day toxicity was checked, most often the fifth; where none is given, no animal had died by that day.

Tested on: P388 leukemia ip, CD2F1 mice, survival T/C
Test: NCI In Vivo Anticancer Drug Screen. Data for tumor model P388 Leukemia (intraperitoneal) in CD2F1 (CDF1) mice
Conditions: T/C endpoint: median survival time, higher T/C = longer survival
[1] = dose: 6.25 mg/kg/injection, schedule: Q01DX009 (ip), vehicle: saline
[2] = dose: 12.5 mg/kg/injection, schedule: Q01DX009 (ip), vehicle: saline
[3] = dose: 25.0 mg/kg/injection, schedule: Q01DX009 (ip), vehicle: saline
[4] = dose: 50.0 mg/kg/injection, schedule: Q01DX009 (ip), vehicle: saline
[5] = dose: 100.0 mg/kg/injection, schedule: Q01DX009 (ip), vehicle: saline
[6] = dose: 200.0 mg/kg/injection, schedule: Q01DX009 (ip), vehicle: saline
[7] = dose: 200.0 mg/kg/injection, schedule: Q04DX002 (ip), vehicle: saline with Tween-80
[8] = dose: 400.0 mg/kg/injection, schedule: Q04DX002 (ip), vehicle: saline with Tween-80
[9] = dose: 200.0 mg/kg/injection, schedule: Q01DX005 (ip), vehicle: Klucel (hydroxypropylcellulose) (HPC)
[10] = dose: 120.0 mg/kg/injection, schedule: Q01DX005 (ip), vehicle: saline with Tween-80
[11] = dose: 200.0 mg/kg/injection, schedule: Q01DX009 (ip), vehicle: Klucel (hydroxypropylcellulose) (HPC)
[12] = dose: 400.0 mg/kg/injection, schedule: Q01DX009 (ip), vehicle: Klucel (hydroxypropylcellulose) (HPC)
[13] = dose: 240.0 mg/kg/injection, schedule: Q01DX005 (ip), vehicle: Klucel (hydroxypropylcellulose) (HPC)
[14] = dose: 120.0 mg/kg/injection, schedule: Q01DX005 (ip), vehicle: saline
[15] = dose: 120.0 mg/kg/injection, schedule: Q01DX005 (ip), vehicle: Klucel (hydroxypropylcellulose) (HPC)
[16] = dose: 240.0 mg/kg/injection, schedule: Q01DX005 (ip), vehicle: saline with Tween-80

In the case of CCOC(=O)NCCF, the survivor count [1] is reported as 1 of 6, the survivor count [2] is reported as 0 of 6 and the survivor count [3] is reported as 0 of 6. For the same molecule, the survivor count [4] was 0 of 6, the survivor count [5] was 0 of 6 and the survivor count [6] was 0 of 6.
C/C(=N\NC(N)=Nc1ccccc1)c1ccc2c(c1)Cc1ccccc1-2 was tested, and the survivor count [7] was 1 of 6 and the survivor count [8] was 1 of 6.
For O=S(=O)(O)O.[NH-]CCC[NH-].[Pt+2], the survivor count (dose: 25.0 mg/kg/injection, schedule: Q04DX002 (ip), vehicle: saline) was 1 of 6.
With COC(/C=N/OC(C)=O)c1ccccc1 (stereo not given) the survivor count (dose: 100.0 mg/kg/injection, schedule: Q04DX003 (ip), vehicle: saline with Tween-80) was 5 of 6 and 6 of 6, the survivor count (dose: 200.0 mg/kg/injection, schedule: Q04DX003 (ip), vehicle: saline with Tween-80) was 1 of 6 and 2 of 6 and the survivor count (dose: 400.0 mg/kg/injection, schedule: Q04DX003 (ip), vehicle: saline with Tween-80) was 0 of 6.
CC(C)C1CC(N(C)C)=CC(=S)N1 (stereo not given) was tested, and the survivor count (dose: 50.0 mg/kg/injection, schedule: Q01DX005 (ip), vehicle: saline) was 4 of 6 and the survivor count [9] was 3 of 6.
In the case of CCCCCCCC/C=C\CCCCCCCC(=O)OCC(COC(=O)CCCCCCC/C=C\CCCCCCCC)OC(=O)N(CCCl)CCCl, the T/C (dose: 60.0 mg/kg/injection, schedule: Q01DX005 (ip), vehicle: saline with Tween-80) is reported as 125 % of control and the T/C [10] is reported as 148 % of control.
OCn1nnc2ccccc21 was tested, and the T/C (dose: 50.0 mg/kg/injection, schedule: Q01DX009 (ip), vehicle: Klucel (hydroxypropylcellulose) (HPC)) was 125 % of control (2×), the T/C (dose: 100.0 mg/kg/injection, schedule: Q01DX009 (ip), vehicle: Klucel (hydroxypropylcellulose) (HPC)) was 127 and 130 % of control [5 of 6 alive] and the T/C [11] was 142 and 142 % of control [5 of 6 alive]. The T/C [12] was 137 % of control [4 of 6 alive] and the survivor count [12] was 2 of 6 and 4 of 6.
Cc1cc2nc3ccc(N=Nc4ccc(N(C)C)cc4)cc3n(-c3ccccc3)c-2cc1=N was tested, and the T/C (dose: 0.78 mg/kg/injection, schedule: Q01DX009 (ip), vehicle: saline) was 132 % of control, the T/C (dose: 1.56 mg/kg/injection, schedule: Q01DX009 (ip), vehicle: saline) was 134 and 141 % of control and the survivor count (dose: 3.12 mg/kg/injection, schedule: Q01DX009 (ip), vehicle: saline) was 1 of 6. For the same molecule, the survivor count [1] was 0 of 6, the survivor count [2] was 0 of 6 and the survivor count [3] was 0 of 6. For the same molecule, the survivor count [4] was 0 of 6, the survivor count [5] was 0 of 6 and the survivor count [6] was 0 of 6.
With Clc1ccccc1-n1cccc1/C=N\N=C/c1cccn1-c1ccccc1Cl the survivor count (dose: 50.0 mg/kg/injection, schedule: Q01DX005 (ip), vehicle: saline with Tween-80) was 6 of 6 and the survivor count (dose: 100.0 mg/kg/injection, schedule: Q01DX005 (ip), vehicle: saline with Tween-80) was 6 of 6.
For CC12C=CC(C(C(=O)O)C1=O)C2(C)C (stereo not given), the survivor count [8] was 3 of 6.
CCN(CC)C(=O)C1CN2CCc3cc(OC)c(OC)cc3C2CC1O (stereo not given) was tested, and the T/C [9] was 126 % of control and the survivor count (dose: 400.0 mg/kg/injection, schedule: Q01DX005 (ip), vehicle: Klucel (hydroxypropylcellulose) (HPC)) was 1 of 6.
O=C1C=CC2(C=C1)CCN=C(c1cc3c(cc1Br)OCO3)O2 was tested, and the survivor count [7] was 1 of 6 and the survivor count [8] was 0 of 6.
For CC(=O)N1c2ccccc2Sc2ccc3ccc(C(=O)CCl)cc3c21, the T/C (dose: 50.0 mg/kg/injection, schedule: Q01DX009 (ip), vehicle: saline with Tween-80) was 133 % of control and the survivor count (dose: 200.0 mg/kg/injection, schedule: Q01DX009 (ip), vehicle: saline with Tween-80) was 4 of 6.
In the case of COc1cc(C2(C3CC(=O)OC3COC(c3ccccc3)(c3ccccc3)c3ccccc3)SCCCS2)cc(OC)c1OC (stereo not given), the survivor count [7] is reported as 6 of 6 and the survivor count [8] is reported as 6 of 6.
In the case of Fc1ccc2nc3ccccc3c(SCCCCCSc3c4ccccc4nc4ccc(F)cc34)c2c1, the survivor count [13] is reported as 6 of 6.
CC(=O)/C(=C\c1ccccc1Cl)C(=O)CCN(C)C was tested, and the T/C [14] was 130 % of control and the survivor count (dose: 240.0 mg/kg/injection, schedule: Q01DX005 (ip), vehicle: saline) was 1 of 6.
CN(Cc1cnc2nc(N)nc(N)c2n1)c1ccc(C(=O)NC(CCC(=O)OC(C)(C)C)C(=O)O)cc1 (stereo not given) was tested, and the T/C (dose: 40.0 mg/kg/injection, schedule: Q04DX003 (ip), vehicle: sodium bicarbonate) was 127 % of control, the T/C (dose: 80.0 mg/kg/injection, schedule: Q04DX003 (ip), vehicle: sodium bicarbonate) was 128 % of control and the T/C (dose: 160.0 mg/kg/injection, schedule: Q04DX003 (ip), vehicle: sodium bicarbonate) was 137 % of control. The T/C (dose: 320.0 mg/kg/injection, schedule: Q04DX003 (ip), vehicle: sodium bicarbonate) was 144 % of control.
For COC1=CCC2=C(CCN(C)C2Cc2ccc(OC)cc2)C1 (stereo not given), the survivor count (dose: 100.0 mg/kg/injection, schedule: Q01DX005 (ip), vehicle: Klucel (hydroxypropylcellulose) (HPC)) was 1 of 5 and the survivor count [9] was 0 of 6.
With Cc1ccc(NC(=O)OCCN(C)C(=O)Nc2ccc(C)cc2C)c(C)c1 the survivor count [15] was 6 of 6.
For NC(N)=NCCSCc1ccc2ccccc2n1, the survivor count (dose: 200.0 mg/kg/injection, schedule: Q01DX005 (ip), vehicle: saline) was 0 of 5.
For COc1cc(C[C@@H]2COC(=O)[C@]2(O)Cc2ccc(O)c(OC)c2)ccc1O, the T/C (dose: 1.0 mg/kg/injection, schedule: Q01DX009 (ip), vehicle: saline + alcohol) was 130 % of control, the T/C (dose: 2.0 mg/kg/injection, schedule: Q01DX009 (ip), vehicle: saline + alcohol) was 141 % of control and the T/C (dose: 4.0 mg/kg/injection, schedule: Q01DX009 (ip), vehicle: saline + alcohol) was 137 % of control. The T/C (dose: 10.0 mg/kg/injection, schedule: Q01DX009 (ip), vehicle: alcohol) was 146 % of control.
With CC1=CC2(C)OC(=O)N(c3ccccc3)C2N=C1 (stereo not given) the survivor count [11] was 0 of 6.
With Cc1ccc(SSc2nnnn2C)cc1 the survivor count [11] was 2 of 6.
O=c1[nH]cc(CSc2ncc[nH]2)c(=O)[nH]1 was tested, and the T/C [10] was 129 % of control [4 of 6 alive], the survivor count [14] was 3 of 6 and the survivor count (dose: 180.0 mg/kg/injection, schedule: Q01DX005 (ip), vehicle: saline) was 0 of 6. For the same molecule, the survivor count [16] was 0 of 6.
In the case of COC(=O)c1nc(N)nc(C(=O)OC)c1C(=O)c1ccc([N+](=O)[O-])cc1, the survivor count [16] is reported as 0 of 6.
CC1(C)N=C(N)N=C(N)N1c1ccc(C(C#N)CCCc2ccccc2)cc1 (stereo not given) was tested, and the survivor count (dose: 60.0 mg/kg/injection, schedule: Q01DX005 (ip), vehicle: Klucel (hydroxypropylcellulose) (HPC)) was 0 of 6, the survivor count [15] was 0 of 6 and the survivor count [13] was 0 of 6.
CC/C([O-])=C1/C(=O)N(c2ccccc2)N=C1C.CC/C([O-])=C1/C(=O)N(c2ccccc2)N=C1C.[Cu+2] was tested, and the survivor count [16] was 6 of 6.
For CC(CCl)N(CCCl)Cc1cccc(Nc2ncnc3nc[nH]c23)c1 (stereo not given), the T/C (dose: 0.2 mg/kg/injection, schedule: Q01DX009 (ip), vehicle: saline) was 127 % of control, the T/C (dose: 0.3 mg/kg/injection, schedule: Q01DX009 (ip), vehicle: saline) was 127 % of control and the T/C (dose: 0.45 mg/kg/injection, schedule: Q01DX009 (ip), vehicle: saline) was 145 % of control. The T/C (dose: 0.5 mg/kg/injection, schedule: Q04DX003 (ip), vehicle: saline) was 127 % of control.
For CN(C)C1=CC(=Nc2ccccc2)SC(C)(C)C1, the survivor count [15] was 0 of 6 and the survivor count [13] was 0 of 6.
With Cc1cc2cc(CN)ccc2n1C the survivor count (dose: 200.0 mg/kg/injection, schedule: Q01DX001 (ip), vehicle: Klucel (hydroxypropylcellulose) (HPC)) was 0 of 6 and the survivor count (dose: 400.0 mg/kg/injection, schedule: Q01DX001 (ip), vehicle: Klucel (hydroxypropylcellulose) (HPC)) was 0 of 6.
